According to patent publication US6083481A, “Thrombus imaging agents” (Diatide, Inc., priority 1998, dated 2000):
At least one peptide structure holds a part that was inferred or is arguable (an end, a ring closure or a residue). Where a SMILES comes first, the peptide text is derived from it. Bridges are numbered along the chain shown (N, C = ends). [ ]: non-standard residue; d: D form. The star is where a group is joined. Propyl(3-NH2) = NCCC*; Acm = CC(=O)NC*

What follows are compounds tested on human platelets in platelet-rich plasma (assay: Platelet aggregation inhibition assay (ADP-induced, platelet-rich plasma)). Conditions: fresh human platelet-rich plasma, aggregation induced by ADP 10 to 15 micromolar; read-out: IC50 (concentration of reagent that inhibits by 50% the aggregation of human platelets).
Assay type: cell-based
Method: Platelet aggregation studies were performed essentially as described by Zucker (1989, Methods in Enzymol. 169: 117-133). Briefly, platelet aggregation was assayed with or without putative platelet aggregation inhibitory compounds using fresh human platelet-rich plasma comprising 300,000 platelets per microlitre. Platelet aggregation was induced by the addition of a solution of adenosine diphosphate to a final concentration of 10 to 15 micromolar, and the extent of platelet aggregation monitored using a Bio/Data aggregometer (Bio/Data Corp., Horsham. Pa.). The concentrations of platelet aggregation inhibitory compounds used were varied from 0.1 to 500 μg/mL. The concentration of inhibitor that reduced the extent of platelet aggregation by 50% (defined as the IC50) was determined from plots of inhibitor concentration versus extent of platelet aggregation. An inhibition curve for peptide RGDS was determined for each batch of platelets tested as a positive control.
*concentration of reagent that inhibits by 50% the aggregation of human
platelets in plateletrich plasma induced to aggregate by the addition of
adenosine diphosphate (ADP).

| Structure (SMILES) | IC50 [µM] |
| --- | --- |
| CC(=O)NCSC[C@H](NC(=O)CNC(=O)[C@H](CSCNC(C)=O)NC(=O)[C@@H]1CSCC(=O)N[C@H](Cc2ccc(O)cc2)C(=O)N[C@@H](CCCNC(=N)N)C(=O)NCC(=O)N[C@@H](CC(=O)O)C(=O)N1)C(N)=O [Peptide P81, CH2 CO-YD RGDCCAcm GCAcm amide] ({CH2CO}-[dY]RGDCC(Acm)GC(Acm)-NH2; thioether N-5) | 25 |
| CC(=O)NCSC[C@H](NC(=O)CNC(=O)[C@H](CSCNC(C)=O)NC(=O)CNC(=O)CNC(=O)[C@@H]1CSCC(=O)N[C@H](Cc2ccc(O)cc2)C(=O)N[C@@H](CCCNC(=N)N)C(=O)NCC(=O)N[C@@H](CC(=O)O)C(=O)N1)C(N)=O [Peptide P143, CH2 CO-YD RGDCGGCAcm GCAcm amide] ({CH2CO}-[dY]RGDCGGC(Acm)GC(Acm)-NH2; thioether N-5) | 1.3 |
| CC(=O)NCSC[C@H](NC(=O)CNC(=O)[C@H](CSCNC(C)=O)NC(=O)CNC(=O)CNC(=O)CNC(=O)[C@@H]1CSCC(=O)N[C@H](Cc2ccc(O)cc2)C(=O)N[C@@H](CSCCCN)C(=O)NCC(=O)N[C@@H](CC(=O)O)C(=O)N1)C(N)=O [Peptide P154, CH2 CO-YD ApcGDCGGGCAcm GCAcm amide] ({CH2CO}-[dY]C(Propyl(3-NH2))GDCGGGC(Acm)GC(Acm)-NH2; thioether N-5) | 0.3 |
| CC(=O)NCSC[C@H](NC(=O)CNC(=O)CNC(=O)[C@@H]1CSCC(=O)N[C@H](Cc2ccc(O)cc2)C(=O)N[C@@H](CSCCCN)C(=O)NCC(=O)N[C@@H](CC(=O)O)C(=O)N1)C(=O)NCC(=O)N[C@@H](CSCNC(C)=O)C(=O)NCC(=O)NCC(=O)N[C@H](Cc1ccccc1)C(=O)N1CCC[C@H]1C(=O)N[C@@H](CCCNC(=N)N)C(=O)N1CCC[C@H]1C(=O)NCC(N)=O [Peptide P245, CH2 CO-YD.Apc. GDCGGCAcm GCAcm GGFD PRPGamide] | 0.5 |
| N=C(N)NCCC[C@H](N)C(=O)NCC(=O)N[C@@H](CC(=O)O)C(=O)N[C@@H](CO)C(=O)O [RGDS, reference compound] | 150 to 250 |
